No constants are given. Whether binding was seen depends on the method and setting. Some entries that bind do so weakly or less than the wild type.
How the values were obtained:
[1] = molecular target: human HGF (recombinant hHGF of Example 3) (human) (UniProt P14210); assay: SPR (BIAcore T100), antibody amine-coupled on CM5 chip, antigen injected; yes/no
[2] = molecular target: reduced rhHGF (human) (UniProt P14210); assay: immunoblot, reduced rhHGF, summary of Table 4
[3] = molecular target: reduced rhHGF (human) (UniProt P14210); assay: immunoblot, reduced rhHGF, antibody 5 µg/mL, exposure 3-5 min, grade - to 3+
[4] = molecular target: human HGF (recombinant hHGF of Example 3) (human) (UniProt P14210); assay: SPR (BIAcore T100), summary of Table 3
[5] = molecular target: mhm chimera (V495-L585) (mouse HGF with human HGF V495-L585) (UniProt Q08048); assay: SPR (BIAcore T100), antibody amine-coupled on CM5 chip, antigen injected; yes/no
[6] = molecular target: mhm chimera (V495-L585) (mouse HGF with human HGF V495-L585) (UniProt Q08048); assay: SPR (BIAcore T100), summary of Table 3

By UniProt entry, the sequences of proteins in these tests, tags left out. Where a name states a change or a piece, a line headed by the entry shows the natural chain unless it says otherwise. Residues count along the entry.
UniProt P14210, residues 32-728: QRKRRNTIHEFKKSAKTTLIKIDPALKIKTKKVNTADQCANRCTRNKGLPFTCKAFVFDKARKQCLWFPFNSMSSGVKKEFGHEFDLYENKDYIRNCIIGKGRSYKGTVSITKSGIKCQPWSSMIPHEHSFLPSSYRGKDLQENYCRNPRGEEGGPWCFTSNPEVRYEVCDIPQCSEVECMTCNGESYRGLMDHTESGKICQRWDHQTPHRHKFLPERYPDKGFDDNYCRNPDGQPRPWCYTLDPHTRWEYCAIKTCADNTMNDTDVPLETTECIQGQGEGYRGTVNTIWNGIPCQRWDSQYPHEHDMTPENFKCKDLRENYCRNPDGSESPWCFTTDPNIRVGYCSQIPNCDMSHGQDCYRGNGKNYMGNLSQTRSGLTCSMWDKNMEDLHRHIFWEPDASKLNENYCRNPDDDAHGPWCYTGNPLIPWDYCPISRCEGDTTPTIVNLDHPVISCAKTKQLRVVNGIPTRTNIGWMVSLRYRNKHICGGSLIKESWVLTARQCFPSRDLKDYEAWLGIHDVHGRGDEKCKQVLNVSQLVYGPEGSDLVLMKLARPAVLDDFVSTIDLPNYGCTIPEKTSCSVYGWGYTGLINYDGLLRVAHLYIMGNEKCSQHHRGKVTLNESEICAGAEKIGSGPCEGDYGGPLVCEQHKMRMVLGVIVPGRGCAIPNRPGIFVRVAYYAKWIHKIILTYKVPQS
UniProt Q08048: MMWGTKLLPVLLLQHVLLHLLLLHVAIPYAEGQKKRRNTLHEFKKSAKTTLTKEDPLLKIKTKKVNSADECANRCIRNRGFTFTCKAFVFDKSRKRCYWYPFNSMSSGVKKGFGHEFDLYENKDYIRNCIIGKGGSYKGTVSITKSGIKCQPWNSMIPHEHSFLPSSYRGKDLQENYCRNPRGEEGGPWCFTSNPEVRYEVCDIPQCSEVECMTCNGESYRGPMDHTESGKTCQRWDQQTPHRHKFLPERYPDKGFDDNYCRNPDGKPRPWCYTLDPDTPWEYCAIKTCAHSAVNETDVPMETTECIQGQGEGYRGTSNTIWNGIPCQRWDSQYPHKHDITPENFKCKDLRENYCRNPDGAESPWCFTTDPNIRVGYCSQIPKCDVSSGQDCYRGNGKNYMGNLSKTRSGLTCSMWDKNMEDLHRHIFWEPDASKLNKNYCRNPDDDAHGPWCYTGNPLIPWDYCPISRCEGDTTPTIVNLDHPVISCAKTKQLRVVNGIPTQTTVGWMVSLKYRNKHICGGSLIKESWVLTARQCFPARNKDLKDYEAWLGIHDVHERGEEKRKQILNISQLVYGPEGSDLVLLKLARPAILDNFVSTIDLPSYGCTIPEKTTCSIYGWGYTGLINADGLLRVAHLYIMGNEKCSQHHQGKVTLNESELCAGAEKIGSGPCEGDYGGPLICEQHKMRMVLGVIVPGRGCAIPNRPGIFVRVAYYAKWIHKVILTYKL

Measured: binding

B1: 3B6 (antibody, mouse IgG1, kappa, V domains shown)
VH: QVQLQQSGAELVRPGSSVKISCKASGYVFSSYWMNWVKQRPGQGLEWIGQIYPGDGDSNYNGNFKGKATLTADKSSSTAYMQLSSLTSEDSAVYFCASQLGLRENYFDYWGQGTTLTVSS
VL: DIKMTQSPSSMYASLGERVTITCKASQDIKSYLSWFQQKPGKSPKTLIYRVNRLVDGVPSRFSGSGSGQDSSLTITSLENEDMGIYYCLQYDEFPFTFGGGTKLEIKR
binds: [1] | [2] | [3] | [4]

B2: 1F3 (antibody, mouse IgG1, kappa, V domains shown)
VH: EVQLVESGGGLVQSGGSLKLSCAASGFTFSNYFMSWVRQTPEKRLEWVAYISSGGGSTYYPDSVKGRFTISRDNAKNTLYLQMSSLKSEDTAMYYCVRQGDGYYGDYAMDYWGQGTSVTVSS
VL: DIQMTQSPASLSVSVGETVTITCRASENIYSNLAWYQQKQGKSPQLLVYDATHLPDGVPSRFSGSGSGTQFSLKINSLQSEDFGSYYCQHFWGTPYTFGGGTRLEIKR
binds: all assays above

B3: 1A3 (antibody, mouse IgG1, kappa, V domains shown)
VH: EVQLVESGGGLVQPGGSLKLSCAASEFTFSNYYMSWVRQTPEKRLQWVAYISPGGGSSYYPASVKGRFTISRDNAKNTLYLQMSSLKSEDTAMYYCARQGDGYYGDYAMDYWGQGTSVTVSS
VL: DIQMTQSPASLSVSVGETVTITCRASENIYSNLAWYQQKQGKSPQLLVYAATNLADGVPSRFSGSGSGTQFSLKINSLQSEDFGTYYCQHFWGTPYTFGGGTKLEIKR
binds: [1] | [2] | [3] | [4]

B4: 2F8 (antibody, mouse IgG1, kappa, V domains shown)
VH: QVQLKQSGAELVRPGTSVKMSCKASGYTFTTYYIHWVNQRPGQGLEWIGKIGPGSGSTYYNEMFKDKATLTVDTSSSTAYMQLSSLTSDDSAVYFCARRGLGRGFDYWGQGTTLTVSS
VL: DIVLTQSPASLAVSLGQRATISCKASQSVDYDGNSYINWYQQKPGQPPKVLIYVASNLESGIPARFSGSGSGTDFTLNIHPVEEEDAATYYCQQSIEDPPTFGAGTKLELKR
binds: [1] | [2] | [3] | [4]

B5: 1D3 (antibody, mouse IgG1, kappa, V domains shown)
VH: EVQLVESGGGLVQPGGSLKLSCAASGFTFSDYYMSWVRQTPEKRLEWVAYISSGGGSTYYPDSVKGRFTISRDNAKNTLYLQMSSLKSEDTAIYYCVRQGDGYYGDYAMDYWGQGTSVIVSS
VL: DIQMTQSPASLSVSVGETVTITCRTSENIYSNLAWYQQKQGKSPQLLIYAATNLADGVPSRFSGSGSGTQFSLRINSLQSEDFGRYYCQHFWGTPYTFGGGTKLEIKR
binds: all assays above

Reference: patent US20100173362A1
